The record followed here is PubChem BioAssay AID1347426 (Functional Genomics Laboratory (NCATS/FGL), 2020).

About 1,400 (4.5%) of roughly 31,000 sequences were called active.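 How the source made its calls: active means median seed-adjusted z-score above 1 or below -1; inactive means the rest.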 The list shows a part of the results.

The assay in a line: Novel Modifiers of Survival Motor Neuron (SMN) Protein: Gene Identification via Genome-wide siRNA Screen.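 Further: luminescence tracks full-length SMN protein made from the SMN2 reporter.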 The settings on record: HEK293T SMN2-luciferase reporter, siRNA knockdown, 72 h; actives lie on both sides. Put shortly:
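Each of three siRNAs per gene is reverse-transfected (1 pmol) into reporter HEK293T cells whose luciferase output tracks SMN protein level. After 72 h culture, ONE-Glo luminescence is control-normalized, log10-transformed and MAD-standardized; Common Seed Analysis deprioritizes seed-driven hits.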
A general note: In a reporter assay the amount or activity of a reporter protein is the signal.
GCUCCUCUCUUAUUCGACATT against ZNF215: the median seed-adjusted z-score was inactive: 0.485.

For CGUCACUGAGCUCAAGAAATT against PFKL, the median seed-adjusted z-score is inactive: 0. GCAAAUGUCAGAGAUUGAATT against SFXN5: the median seed-adjusted z-score was inactive: 0. With CGAGUACUCUCAAGUUUUATT against FECH, the median seed-adjusted z-score was inactive: 0.135. As for GGACAAGUUAGGGUUCCAATT against DND1, the figure is inactive: 0.157; as for GGAGAGAGCGUGUCCUACATT against SIRPA, inactive: -0.153. In the case of UGAUGACCUCGGCUCCUAUTT against ARFGAP1, the median seed-adjusted z-score is inactive: 0.123. Turning to GGAUACGAGCUAUUUGAGATT against ZNF791, the median seed-adjusted z-score was inactive: 0.219.

GCAAGAACCUUUCAAGGCATT against ADORA2A: the median seed-adjusted z-score was inactive: 0.

On to AGUGACAGAGUACAAGAUATT against EIF3G, for which the median seed-adjusted z-score was inactive: -0.198. Take GGGUGAAGAUUUACGACAUTT against CGN: the median seed-adjusted z-score was inactive: 0.33.

With GGAUUAGCCGGAACAACAATT against CDH12, the median seed-adjusted z-score was inactive: -0.0663. As for AGAGCAUCGUAACCCUGCATT against PMP2, the figure is inactive: 0.00618. As for GAGCAUCCACAAGAAUCUATT against GCAT, the figure is inactive: 0.672. Turning to GCUGGGCAGAUGACCUCUATT against HCRTR1, the median seed-adjusted z-score is inactive: 0.739.

GGAGGACUGUUGGAAUUGUTT against PCCB: the median seed-adjusted z-score is inactive: 0.137. Then CUCCUGUACUCUUCAGAGATT against PTOV1, with inactive: 0.115; and CACUCACACCAUCCUAUGATT against GNG13, with inactive: -0.516. As for GGCUAUUUUUGAUCACAUUTT against NAT2, the figure is inactive: -0.0495. Then CAAUCUAUCAACAACUAAATT against TACR3, with inactive: 0.0904. As to CCAGCGAGCUGAUCCUCAATT against MYCN, the median seed-adjusted z-score is inactive: 0.00242.

For the sequence CAGGAUCCUUUAUUAUACATT against VPS13B, the median seed-adjusted z-score is inactive: 0. Take GGAGUUACAUAUAAUCCUATT against PRSS7: the median seed-adjusted z-score was inactive: 0.0614.

Regarding GAUUUGACAUAGAUGAAGATT against METTL5, the median seed-adjusted z-score is inactive: 0.221. For CAUUAGCAGAUAUACUAUUTT against EEF1E1, the median seed-adjusted z-score is active: -1.45. Regarding GCCGUUCUGUUUCAAAGGATT against ACTR10, the median seed-adjusted z-score was inactive: 0.362. Then CGUCCAAAAUCCAAAUAUATT against ABCG5, with inactive: 0.739; and GAAGAUACAUAAGAUCGUATT against ZNF141, with inactive: 0.223.

In the case of ACAAGACCCUCUCAAAAGATT against NEFH, the median seed-adjusted z-score is inactive: 0.688.

Turning to GGAGUUACAUUACUUCGUUTT against UQCRC2, the median seed-adjusted z-score is inactive: -0.848.
